# Source: PubChem BioAssay AID504467 (National Center for Advancing Translational Sciences (NCATS), 2011)
# In all, about 330,000 compounds went through this assay and about 7,700 (2.3%) were called active. The inconclusive results got no clear call from the source; some entries with a clear call stand among them for comparison. The call rests on the fitted dose curve; in most records, active means well fitted inhibition curve with a large enough effect; inconclusive means small, poorly fitted or top-dose-only effect, or effect the other way; inactive means flat fitted curve, though single readings scatter. Potencies beside an inconclusive call are fits to weak or partial responses and may not hold up.
# Assay: qHTS screen for small molecules that inhibit ELG1-dependent DNA repair in human embryonic kidney (HEK293T) cells expressing luciferase-tagged ELG1; further: nearly all actives have a fitted effect of over 55% in size
# Conditions: HEK293T ELG1-luciferase reporter, luminescence, 16 h, DNA damage induced by 5-fluorouridine; activity change, negative = inhibition: at 46.1 µM (top of the series)
# Procedure, shortened: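 Quantitative HTS, concentration-response format. 2,000 cells/well co-treated with 5-fluorouridine and compound, 16 hr in 5% CO2 at 37 °C; ONE-Glo luminescence read after 30 min.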
# On the % scale 0 is the no-effect control and ±100 the full control effect; potency means the concentration at half of the fitted maximal effect.
Compound,"activity change, negative = inhibition",Potency
COc1ccc(C)cc1S(=O)(=O)N(CC(=O)Nc1cccc([N+](=O)[O-])c1)c1cc(C)cc(C)c1,inactive: -3.71%,–
Cc1c(C(=O)NCc2ccccc2)oc2ccc(S(=O)(=O)N3CCC4(CC3)OCCO4)cc12,–,active: 4.11 µM
O=C(c1cc(COc2ccc3ncccc3c2)on1)N1CCCC1,–,"inconclusive: 29.1 µM [activator, single point]"
O=C(c1ccc(Br)cc1)N(Cc1nc2ccccc2c(=O)[nH]1)C1CCCC1,–,"inconclusive: 14.6 µM [inhibitor, partial curve, poor fit]"
COc1ccc(-c2nn(-c3ccccc3)cc2CNC(=O)c2cccc([N+](=O)[O-])c2)cc1,–,"inconclusive: 20.6 µM [inhibitor, single point]"
COc1ccc([N+](=O)[O-])cc1C1NN=C(c2ccccc2O)S1 (configuration not stated),–,"inconclusive: 32.6 µM [activator, partial curve, poor fit]"
O=C(Oc1ccc(NC2=C(Cl)C(=O)c3ccccc3C2=O)cc1)c1ccc([N+](=O)[O-])cc1,–,"inconclusive: 20.6 µM [activator, single point]"
CCCCCCc1cc2cc(C(=O)NCc3ccccc3)c(=N)oc2cc1O,inactive: -0.45%,–
Cc1cc(C)cc(NC(=O)c2cc(C)nn2C)c1,inactive: 16.8%,–
O=C(Cc1ccccc1)N[C@@H]1c2ccccc2CC[C@@H]1OCc1ccccc1,–,"inconclusive: 20.6 µM [activator, partial curve, poor fit]"
COc1ccc(CN2C(=O)c3ccccc3C2=O)cc1C(=O)Nc1ccccc1N1CCOCC1,–,"inconclusive: 29.1 µM [inhibitor, single point]"
N/C(=N\OC(=O)c1ccc(Cl)cc1)c1ccn[nH]1,–,"inconclusive: 6.51 µM [activator, partial curve]"
CC(C)(C)C(=O)N/C(N)=N/c1nc2ccccc2o1,–,"inconclusive: 2.59 µM [activator, partial curve]"
O=C1c2ccccc2-c2nnc(-c3ccc(F)cc3)cc21,–,"inconclusive: 2.31 µM [activator, full curve]"
COc1cccc(OCc2cc(C(=O)N3CCN(c4ccccc4OC)CC3)no2)c1,–,"inconclusive: 20.6 µM [activator, partial curve]"
CC(C)n1cnc2c(N(C)c3ccccc3)nc(N(CCN(C)C)Cc3ccccc3)nc21,–,"inconclusive: 23.1 µM [inhibitor, single point]"
COc1ccc(NS(=O)(=O)c2cccc(-c3nnc4n3CCCCC4)c2)cc1,–,"inconclusive: 1.26 µM [inhibitor, single point]"
COc1ccc(C(=O)NCCOc2ccccc2Cl)c(OC)c1OC,–,"inconclusive: 5.8 µM [activator, single point]"
CCN(CC)S(=O)(=O)c1ccc(N2CCOCC2)c(NC(=O)Cc2cccc3ccccc23)c1,–,active: 7.31 µM
O=C(CSc1nc(-c2ccccc2)cs1)NCCN1C(=O)CSC1=O,–,"inconclusive: 20.6 µM [activator, partial curve]"
CCc1ccc2[nH]c3nc(SCCN4CCOCC4)nnc3c2c1,–,active: 25.9 µM
COc1cc(/C=C(\C#N)C(=O)Nc2ccccn2)ccc1O,–,"inconclusive: 18.3 µM [activator, single point]"
N#Cc1c(N2CCCC(O)C2)nc(N)c2c(N)nc3c(c12)CC(=O)N3C12CC3CC(CC(C3)C1)C2 (configuration not stated),–,"inconclusive: 23.1 µM [inhibitor, single point]"

Compound,"activity change, negative = inhibition",Potency
Cc1cc(Cl)ccc1OCc1cn2cccnc2n1,–,"inconclusive: 14.6 µM [activator, partial curve]"
Cn1c(SCc2ccc(C(=O)Nc3nccs3)cc2)nnc1-c1ccccc1,–,"inconclusive: 29.1 µM [inhibitor, single point]"
c1ccc(-c2ncc(-c3ccn[nH]3)s2)cc1,–,"inconclusive: 4.11 µM [activator, partial curve]"
CN(C)/C=C1\SC(=S)N(c2ccc(F)cc2)C1=O,inactive: 8.82%,–
O=c1cc(CN2CCN(c3cccc(C(F)(F)F)c3)CC2)nc2sccn12,–,"inconclusive: 20.6 µM [inhibitor, single point]"
CCOC(=O)C1=C(C)NC(C)=C(C(=O)OCC)C1C(=O)OCC(=O)N1CCCCC1CC (configuration not stated),inactive: -8.21%,–
COc1ccc(Cn2c(=N)c(C(=O)NCC3CCCO3)cc3c(=O)n4ccccc4nc32)cc1 (configuration not stated),inactive: -14.9%,–
c1ccc(-c2csc(-c3ccc(-c4csnn4)cc3)n2)cc1,–,"inconclusive: 18.3 µM [activator, partial curve]"
O=C(CSc1ccccc1)Nc1ccc(NC(=O)c2ccco2)cc1,–,"inconclusive: 9.2 µM [activator, partial curve]"
CC(C)c1ccc(C(CC(=O)O)N2Cc3ccccc3C2=O)cc1 (configuration not stated),inactive: 0.979%,–
COC(=O)c1ccc(CN2CCc3ccc(NC(=O)c4ccncc4)cc3C2)cc1,–,"inconclusive: 23.1 µM [inhibitor, partial curve]"
CC(C)(CNC(=O)CCC1CCCC1)CNC(=O)CCC1CCCC1,–,"inconclusive: 20.6 µM [inhibitor, single point]"
Cc1ccsc1/C=C/C1=Cc2c(sc(NC(=O)CSc3n[nH]c(N)n3)c2C#N)C(C)(C)C1,–,"inconclusive: 6.51 µM [activator, single point]"
Cc1ccc(-n2c(-c3ccncc3)n[nH]c2=S)cc1,inactive: 1.56%,–
Cc1cccc(/C=N/n2c(C3CCCCC3)n[nH]c2=S)c1,inactive: 11.9%,–
CC1=NN(C(=O)CSCc2ccccc2)C(O)(c2ccccc2)C1 (configuration not stated),–,"inconclusive: 8.2 µM [inhibitor, partial curve, poor fit]"
O=C1c2ccccc2-c2nc3ccccc3nc21,–,"inconclusive: 18.4 µM [activator, partial curve]"
O=C(Nc1ccccc1)c1ccc(N2CCN(c3ccccc3)CC2)c(S(=O)(=O)N2CCOCC2)c1,–,"inconclusive: 11.6 µM [inhibitor, partial curve]"
COc1ccccc1-c1nn(Cc2ccccc2)cc1C(=O)NCC(c1ccco1)N1CCCC1 (configuration not stated),inactive: 0.303%,–
O=C(c1c(F)cccc1F)N1CCCC(c2nc(-c3ccc(Cl)cc3)no2)C1 (configuration not stated),–,"inconclusive: 0.501 µM [inhibitor, partial curve, poor fit]"
C/C(=N\NC(=O)c1cccc(N2CCCC2=O)c1)c1ccc(N)cc1,–,"inconclusive: 18.3 µM [activator, single point]"
CCn1c(SCC(=O)N2CCCc3ccccc32)nnc1-c1c[nH]c2ccccc12,–,"inconclusive: 25.9 µM [inhibitor, single point]"
O=[N+]([O-])c1ccccc1NCCOc1ccccc1,–,"inconclusive: 18.4 µM [activator, partial curve]"

Compound,"activity change, negative = inhibition",Potency
COc1ccccc1C(=O)Nc1nnc(-c2ccco2)s1,–,"inconclusive: 1.84 µM [activator, full curve]"
COc1cc(NC(=O)COc2ccc(-n3cnnn3)cc2)cc(OC)c1OC,–,"inconclusive: 16.4 µM [inhibitor, single point]"
COc1ccc(-c2noc(CCCC(=O)Nc3cccnc3)n2)cc1OC,–,"inconclusive: 32.6 µM [inhibitor, single point]"
CN(C)c1ccc(/C=N/NC(=O)c2ccccn2)cc1,–,"inconclusive: 2.06 µM [activator, partial curve]"
COc1ccc(NC(=O)c2oc3ccccc3c2NC(=O)C2CCCO2)cc1OC (configuration not stated),–,"inconclusive: 25.9 µM [inhibitor, single point]"
COc1ccc(O)c(CN2CCCC(N3CCN(c4ccc(F)cc4)CC3)C2)c1 (configuration not stated),inactive: -12.7%,–
O=C(c1cc(COc2c(F)cccc2F)on1)N1CCN(C2CCCCC2)C(=O)C1,inactive: 3.34%,–
Cn1c([N+](=O)[O-])cnc1N1CCN(c2nncs2)C1=O,–,"inconclusive: 29.1 µM [activator, single point]"
Cc1cc(C)c2c(N)c3cccc(C)c3nc2n1,–,"inconclusive: 29.1 µM [inhibitor, single point]"
O=C(CCCc1nc2ccccc2s1)NCc1ccccc1,–,"inconclusive: 23.1 µM [activator, partial curve, poor fit]"
N/C(=N\OC(=O)c1ccc2ccccc2c1)c1ccccn1,–,"inconclusive: 0.326 µM [activator, full curve]"
CCOC(=O)Cn1c(C)cc(=O)c2ccccc21,inactive: 1.44%,–
CCN1CCN(c2cc3c(nn2)Oc2ccccc2N3C)CC1,–,"inconclusive: 18.4 µM [activator, partial curve]"
O=C(NCc1ccco1)/C(=C/C=C\c1ccccc1)NC(=O)c1ccc(Br)o1,–,"inconclusive: 25.9 µM [inhibitor, single point]"
Cc1ccc(NC(=O)CN2CCc3ccccc3C2)cc1S(=O)(=O)N1CCOCC1,–,"inconclusive: 23.1 µM [inhibitor, partial curve]"
Cc1nc2cc(C(F)(F)F)ccc2n1CCNc1nc(-c2cc(Cl)c(N)c(Cl)c2)cs1,inactive: -16%,–
CCNC(=O)/C(C#N)=C/c1c(N2CCN(Cc3ccc4c(c3)OCO4)CC2)nc2c(C)cccn2c1=O,–,active: 20.6 µM
O=[N+]([O-])c1ccc2nc(-[n+]3c(-c4ccccc4)cc(-c4ccccc4)cc3-c3ccccc3)[nH]c2c1,–,active: 23.1 µM
O=C(OCc1ccc([N+](=O)[O-])cc1)c1cc(S(=O)(=O)N2CCCCC2)ccc1N1CCOCC1,–,"inconclusive: 10.3 µM [inhibitor, single point]"
Cc1ccc(C(=O)NN=CC(=O)c2ccccc2)c(C)c1,–,"inconclusive: 5.17 µM [activator, partial curve]"
CCN1C(=O)/C(=C/C=C2/SCCN2C)SC1=S,–,"inconclusive: 2.31 µM [activator, full curve]"

# Of the compounds above, 4 have a cyano group.
Compound,"activity change, negative = inhibition",Potency
COc1cc(/C=C(\C#N)C(=O)Nc2ccccn2)ccc1O,–,"inconclusive: 18.3 µM [activator, single point]"
N#Cc1c(N2CCCC(O)C2)nc(N)c2c(N)nc3c(c12)CC(=O)N3C12CC3CC(CC(C3)C1)C2 (configuration not stated),–,"inconclusive: 23.1 µM [inhibitor, single point]"
Cc1ccsc1/C=C/C1=Cc2c(sc(NC(=O)CSc3n[nH]c(N)n3)c2C#N)C(C)(C)C1,–,"inconclusive: 6.51 µM [activator, single point]"
CCNC(=O)/C(C#N)=C/c1c(N2CCN(Cc3ccc4c(c3)OCO4)CC2)nc2c(C)cccn2c1=O,–,active: 20.6 µM
